Columns and labels:
Format in all cases: cell-based
[1] = system: Azoarcus sp. DD4; experiment: Co-metabolism of dioxane by DD4 using propane as the primary substrate; settings: NMS, 30° C.
[2] = system: Azoarcus sp. DD4; experiment: Biodegradation of concurrent dioxane and 1,1-DCE by DD4 in microcosms; settings: for degradation with 1-propanol compared to the treatment fed with propane: concurrent 1,1-DCE and dioxane
Procedure: Biodegradation of concurrent dioxane and 1,1-DCE by Azoarcus sp. DD4. To evaluate the performance of DD4 in removing dioxane and 1,1-DCE when both compounds are concurrently present, microcosms were prepared with DD4 inoculum in NMS medium and dosed with dioxane and 1,1-DCE. Two primary substrates were used, including propane and 1-propanol.

[3] = system: Mycobacterium sp. DT1; experiment: Cometabolism of dioxane by DT1 using propane as the primary substrate
[4] = system: Azoarcus sp. DD4; experiment: Cometabolism of CAHs by DD4 resting cells after being fed with propane; settings: 0.13 mg protein mL^−1, 24 h, headspace GC
[5] = system: Mycobacterium sp. DT1; experiment: Cometabolism of other CAHs by DT1 resting cells after being fed with propane; settings: 0.22 mg protein mL^−1, headspace GC

C1COCCO1 [dioxane, 1,4-dioxane]
lag time before dioxane degradation ([1]; DD4 grown on 1.5% propane): approximately 60 h | dioxane concentration at the incubation of 96 h ([1]; initial 18.9±1.8 mg/L dioxane, 1.5% propane): 0.6 ± 0.1 mg/L | degradation with 1-propanol compared to the treatment fed with propane [2]: approximately three times faster | lag time of dioxane degradation by DT1 ([3]; 3.3% propane, BSM with 0.1% Tween-80, 30° C.): without a lag time | dioxane concentration at the incubation of 96 h ([3]; initial 20.1±1.4 mg/L, below the MDL of GC-FID): < 0.1 mg/L

C=C(Cl)Cl [1,1-DCE, 1,1-dichloroethylene]
cometabolism by DD4 resting cells after growth with propane [4]: able to cometabolize | degradation with 1-propanol compared to the treatment fed with propane [2]: approximately three times faster | day on which fully degraded ([2]; propane as primary substrate, dioxane concurrently present): 23 days | cometabolism by DT1 resting cells after growth with propane [5]: no degradation

C=CCl [VC, vinyl chloride]
cometabolism by DT1 resting cells after growth with propane [5]: able to cometabolize

Cl/C=C\Cl [cis-1,2-DCE, cis-1,2-dichloroethene]
cometabolism by DD4 resting cells after growth with propane [4]: able to cometabolize | cometabolism by DT1 resting cells after growth with propane [5]: able to cometabolize

ClC=C(Cl)Cl [TCE, trichloroethene]
cometabolism by DD4 resting cells after growth with propane [4]: no degradation

ClCCCl [1,2-DCA, 1,2-dichloroethane]
cometabolism by DD4 resting cells after growth with propane [4]: able to cometabolize | cometabolism by DT1 resting cells after growth with propane [5]: able to cometabolize

CC(Cl)(Cl)Cl [1,1,1-TCA, 1,1,1-trichloroethane]
cometabolism by DD4 resting cells after growth with propane [4]: no degradation | cometabolism by DT1 resting cells after growth with propane [5]: no degradation

Cl/C=C/Cl [trans-1,2-DCE]
cometabolism by DT1 resting cells after growth with propane [5]: able to cometabolize

CC(Cl)Cl [1,1-DCA, 1,1-dichloroethane]
cometabolism by DT1 resting cells after growth with propane [5]: able to cometabolize

— patent publication US10603701B2, “Bioremediation of 1,4-dioxane and chlorinated aliphatic hydrocarbons by propanotrophic bacteria” (New Jersey Institute of Technology, priority 2018, dated 2020)
